Data from patent publication US6132944A, “Photographic element containing high dye-yield couplers” (Eastman Kodak Company, priority 1999, dated 2000).

Legend:
[1] = single layer coating sensitometry, C41 process: contrast (gamma) and Dmax vs. reference coupler C-1
Method: Test samples were prepared, processed and tested as follows.
The formats for single layer samples were as follows (amounts in g/m2 unless otherwise specified).
The image couplers were, typically, dispersed in di-n-butyl phthalate. Coated strips were exposed using a conventional step-wedge and processed using the Kodak Flexicolor C41 process.
Couplers were coated as follows:
Format 1: Comp-2 and Comp-3
Format 2: Comp-5 and Comp-6
Format 3: All other couplers
In each case, the high dye-yield couplers were coated at the lower laydown of those given for the format.
The samples were tested as shown in the footnotes of Table I, and the results of the testing are as shown.
***(coupler contrast/C1 reference coupler contrast) x 100; all examples
****Coupler Dmax/Dmax of reference coupler C1
(a)Comp1 and reference coupler C1 were each coated at 1.3 mmoles/m^2
(b)Comp2 and Comp3 were each coated at 0.20 mmoles/m^2 and reference
(c)Comp5 and Comp6 were each coated at 0.2 mmoles/m^2 and reference
(d)Inv1 through Inv10 were all coated at 0.27 mmoles/m^2 and compared

[2] = Dmax (sensitometry) and azomethine dye in Dmax (HPLC), standard process; conditions: for unreacted coupler in the Dmax region: in words
Method: Samples of each element were imagewise exposed through a graduated density test object and processed at 40° C., employing a color developing solution as described below, then bleached, fixed, and dried to produce yellow dye images.
A series of experiments were conducted in order to determine the factors involved in the relatively low Dmax values observed for carboxylic acid solubilized HDY couplers as compared to sulfonamide solubilized HDY couplers. On the basis of these experiments, it was concluded that the carboxylic acid solubilized couplers yielded dyes subject to washout under neutral conditions. Table 1 contains a list of Dmax values (sensitometry) for a series of HDY couplers and the relative amounts of azomethine dye (HPLC). In each case the relative yield of carboxylic acid solubilized dye is lower than that of the sulfonamide solubilized dye.
^a Standard exposure and processing conditions are given in the
^c Relative amounts of azomethine dye based on HPLC analysis.

[3] = azomethine dye washout after water rinse (20 min), accelerated process; conditions: 20 min rinse; for % Azomethine Dye lost: HPLC
Method: As a consequence, the carboxylic acid solubilized dye could possibly be subject to washout during bleach, fix, or rinse steps. In order to test this hypothesis, a series of coated film strips were processed under accelerated conditions (see Table III) to minimize any potential dye loss. The strips were then subject to rinse (water) for 20 min. The sensitometric change in the Dmax value after rinse in addition to the % dye lost during rinse are contained in Table VI. | ^a Processed under accelerated conditions, see Table III | ^c Given by the difference: Dmax(20 min rinse) Dmax(no rinse). | ^d Determined by HPLC analysis.

[4] = Format 4, Comp-1 and C-1 each at 1.3 mmoles/m^2, dibutyl phthalate
[5] = Format 1, 0.20 mmoles/m^2, C-1 at 0.40 mmoles/m^2, dibutyl phthalate
[6] = Format 2, 0.2 mmoles/m^2, C-1 at 0.4 mmoles/m^2, dibutyl phthalate
[7] = Format 3, 0.27 mmoles/m^2, C-1 at 0.54 mmoles/m^2, dibutyl phthalate
[8] = Format 3, 0.27 mmoles/m^2, C-1 at 0.54 mmoles/m^2, oleyl alcohol

Structure (SMILES): CCCCCCCCCCCCCCCCS(=O)(=O)Nc1ccc(Cl)c(NC(=O)C(OC(=O)N(CC)c2ccc(N=Nc3ccc(C(=O)OCCCCCCCCCCCC)cc3)cc2)C(=O)C(C)(C)C)c1 (stereo not shown) [Comp-1]
- % gamma (vs. C-1) [1, 4]: 38%
- Dmax/Dmax (vs. C-1) [1, 4]: 0.62

Structure (SMILES): CCCCCCCCCCCCCCCCNS(=O)(=O)c1ccc(Cl)c(NC(=O)C(OC(=O)N(CCCC)c2ccc(C=C(C#N)c3nc4ccccc4o3)c(C)c2)C(=O)c2ccc(OC)cc2)c1 (stereo not shown) [Comp-2]
- % gamma (vs. C-1) [1, 5]: 14%
- Dmax/Dmax (vs. C-1) [1, 5]: 0.24

Structure (SMILES): CCCCCCCCCCCCCCCCNS(=O)(=O)c1ccc(Cl)c(NC(=O)C(OC(=O)N(CCCCCCCCCCCC)c2ccc(C=C(C#N)c3nc4ccccc4o3)c(C)c2)C(=O)c2ccc(OC)cc2)c1 (stereo not shown) [Comp-3]
- % gamma (vs. C-1) [1, 5]: 29%
- Dmax/Dmax (vs. C-1) [1, 5]: 0.44

Structure (SMILES): CCCCCCCN(C(=O)OC(C(=O)Nc1ccccc1OC)C(=O)c1cccc(NS(=O)(=O)c2ccc(C)cc2)c1)c1ccc(C=C(C#N)c2nc3ccc(C)cc3o2)c(C)c1 (stereo not shown) [Comp-5]
- % gamma (vs. C-1) [1, 6]: 69%
- Dmax/Dmax (vs. C-1) [1, 6]: 1.07

Structure (SMILES): CCCCN(C(=O)OC(C(=O)Nc1ccccc1OC)C(=O)c1cccc(NS(=O)(=O)c2ccc(C)cc2)c1)c1ccc(C=C(C#N)c2nc3cc(C(C)(C)CC(C)(C)C)ccc3o2)c(C)c1 (stereo not shown) [Comp-6]
- % gamma (vs. C-1) [1, 6]: 82%
- Dmax/Dmax (vs. C-1) [1, 6]: 1.21

Structure (SMILES): Cc1cc(N(C(=O)OC(C(=O)Nc2cc(NS(=O)(=O)c3cccc(C(=O)O)c3)ccc2Cl)C(=O)C(C)(C)C)C2CCCC2)ccc1C=C(C#N)c1nc2cc(C(C)(C)CC(C)(C)C)ccc2o1 (stereo not shown) [Comp-13]
- Azomethine dye in Dmax (HPLC), relative amount ([2]; high boiling solvent Sol. 6): 0.51
- Dmax ([2]; high boiling solvent Sol. 6): 1.35
- unreacted coupler in the Dmax region [2]: contains no unreacted coupler in the Dmax region
- % Azomethine Dye lost ([3]; Sol. 6): 13%
- Blue Dmax change ([3]; Sol. 6): -0.11

Structure (SMILES): Cc1cc(N(C(=O)OC(C(=O)Nc2cc(NC(=O)c3ccccc3C(=O)O)ccc2Cl)C(=O)C(C)(C)C)C2CCCC2)ccc1C=C(C#N)c1nc2cc(C(C)(C)CC(C)(C)C)ccc2o1 (stereo not shown) [Comp-14]
- Azomethine dye in Dmax (HPLC), relative amount ([2]; high boiling solvent Sol. 6): 0.26
- Dmax ([2]; high boiling solvent Sol. 6): 1.02
- % Azomethine Dye lost ([3]; Sol. 6): 39%
- Blue Dmax change ([3]; Sol. 6): -0.13

Structure (SMILES): Cc1cc(N(C(=O)OC(C(=O)Nc2cc(NC(=O)CCC(=O)O)ccc2Cl)C(=O)C(C)(C)C)C2CCCC2)ccc1C=C(C#N)c1nc2cc(C(C)(C)CC(C)(C)C)ccc2o1 (stereo not shown) [Comp-15]
- Azomethine dye in Dmax (HPLC), relative amount ([2]; high boiling solvent Sol. 6): 0.21
- Dmax ([2]; high boiling solvent Sol. 6): 1.26
- % Azomethine Dye lost ([3]; Sol. 6): 51%
- Blue Dmax change ([3]; Sol. 6): -0.21

Structure (SMILES): Cc1cc(N(C(=O)OC(C(=O)Nc2cc(NS(=O)(=O)c3ccc(O)cc3)ccc2Cl)C(=O)C(C)(C)C)C2CCCC2)ccc1C=C(C#N)c1nc2cc(C(C)(C)CC(C)(C)C)ccc2o1 (stereo not shown) [Comp-21]
- % gamma (vs. C-1) [1, 7]: 98%
- Dmax/Dmax (vs. C-1) [1, 7]: 1.18

Structure (SMILES): Cc1cc(N(C(=O)OC(C(=O)Nc2cc(NS(=O)(=O)c3ccc(O)c(NS(C)(=O)=O)c3)ccc2Cl)C(=O)C(C)(C)C)C2CCCC2)ccc1C=C(C#N)c1nc2cc(C(C)(C)CC(C)(C)C)ccc2o1 (stereo not shown) [Inv-1]
- % gamma (vs. C-1) [1, 7]: 145%
- Dmax/Dmax (vs. C-1) [1, 7]: 1.40

Structure (SMILES): COc1ccc(C(=O)C(OC(=O)N(c2ccc(C=C(C#N)c3nc4cc(C(C)(C)CC(C)(C)C)ccc4o3)c(C)c2)C2CCCC2)C(=O)Nc2cc(NS(=O)(=O)c3ccc(O)cc3)ccc2Cl)cc1 (stereo not shown) [Inv-3]
- % gamma (vs. C-1) [1, 7]: 166%
- Dmax/Dmax (vs. C-1) [1, 7]: 1.59

Structure (SMILES): CCN(C(=O)OC(C(=O)Nc1cc(NS(=O)(=O)c2c(NS(C)(=O)=O)ccc3ccccc23)ccc1Cl)C(=O)c1ccc(OC)cc1)c1ccc(C=C(C#N)c2nc3cc(C(C)(C)CC(C)(C)C)ccc3o2)c(C)c1 (stereo not shown) [Inv-4]
- % gamma (vs. C-1) [1, 7]: 150%
- Dmax/Dmax (vs. C-1) [1, 7]: 1.52

Structure (SMILES): CCN(C(=O)OC(C(=O)Nc1cc(NS(=O)(=O)c2ccc(NS(C)(=O)=O)c3ccccc23)ccc1Cl)C(=O)c1ccc(OC)cc1)c1ccc(C=C(C#N)c2nc3cc(C(C)(C)CC(C)(C)C)ccc3o2)c(C)c1 (stereo not shown) [Inv-5]
- % gamma (vs. C-1) [1, 7]: 199%
- Dmax/Dmax (vs. C-1) [1, 7]: 1.68

Structure (SMILES): Cc1cc(N(C(=O)OC(C(=O)Nc2cc(NS(=O)(=O)c3ccc(NS(C)(=O)=O)cc3O)ccc2Cl)C(=O)C(C)(C)C)C2CCCC2)ccc1C=C(C#N)c1nc2cc(C(C)(C)CC(C)(C)C)ccc2o1 (stereo not shown) [Inv-6]
- % gamma (vs. C-1) [1, 7]: 168%
- Dmax/Dmax (vs. C-1) [1, 7]: 1.59

Structure (SMILES): CCN(C(=O)OC(C(=O)Nc1cc(NS(=O)(=O)c2ccc(NS(C)(=O)=O)cc2)ccc1Cl)C(=O)c1ccc(OC)cc1)c1ccc(C=C(C#N)c2nc3cc(C(C)(C)CC(C)(C)C)ccc3o2)c(C)c1 (stereo not shown) [Inv-7]
- % gamma (vs. C-1) [1, 7]: 183%
- Dmax/Dmax (vs. C-1) [1, 7]: 1.56

Structure (SMILES): CCN(C(=O)OC(C(=O)Nc1cc(NS(=O)(=O)c2ccccc2NS(C)(=O)=O)ccc1Cl)C(=O)c1ccc(OC)cc1)c1ccc(C=C(C#N)c2nc3cc(C(C)(C)CC(C)(C)C)ccc3o2)c(C)c1 (stereo not shown) [Inv-8]
- % gamma (vs. C-1) [1, 7]: 158%
- Dmax/Dmax (vs. C-1) [1, 7]: 1.53

Structure (SMILES): Cc1cc(N(C(=O)OC(C(=O)Nc2cc(NS(=O)(=O)c3cccc(NS(C)(=O)=O)c3)ccc2Cl)C(=O)C(C)(C)C)C2CCCC2)ccc1C=C(C#N)c1nc2cc(C(C)(C)CC(C)(C)C)ccc2o1 (stereo not shown) [Inv-9]
- Azomethine dye in Dmax (HPLC), relative amount ([2]; high boiling solvent Sol. 6): 0.54
- Dmax ([2]; high boiling solvent Sol. 6): 1.35
- unreacted coupler in the Dmax region [2]: has unreacted coupler in the Dmax region
- % gamma (vs. C-1) [1, 7]: 110%
- Dmax/Dmax (vs. C-1) [1, 7]: 1.39
- % Azomethine Dye lost ([3]; Sol. 6): 0%
- Blue Dmax change ([3]; Sol. 6): -0.02

Structure (SMILES): COc1ccc(C(=O)C(OC(=O)N(c2ccc(C=C(C#N)c3nc4cc(C(C)(C)CC(C)(C)C)ccc4o3)c(C)c2)C2CCCC2)C(=O)Nc2cc(NS(=O)(=O)c3ccccc3NS(C)(=O)=O)ccc2Cl)cc1 (stereo not shown) [Inv-10]
- % gamma (vs. C-1) [1, 8]: 204%
- Dmax/Dmax (vs. C-1) [1, 8]: 1.84

Structure (SMILES): Cc1cc(N(C(=O)OC(C(=O)Nc2cc(NS(=O)(=O)c3cc(NS(C)(=O)=O)ccc3NS(C)(=O)=O)ccc2Cl)C(=O)C(C)(C)C)C2CCCC2)ccc1C=C(C#N)c1nc2cc(C(C)(C)CC(C)(C)C)ccc2o1 (stereo not shown) [Inv-26]
- % Azomethine Dye lost ([3]; Sol. 6): 3%
- Blue Dmax change ([3]; Sol. 6): -0.04

Structure (SMILES): CCC(C)(C)c1cc(C(C)(C)CC)c2oc(C(C#N)=Cc3ccc(N(C(=O)OC(C(=O)Nc4cc(NS(=O)(=O)c5ccc(NS(C)(=O)=O)cc5NS(C)(=O)=O)ccc4Cl)C(=O)C(C)(C)C)C4CCCC4)cc3C)nc2c1 (stereo not shown) [Inv-42]
- Azomethine dye in Dmax (HPLC), relative amount ([2]; Sol. 3 (50%): Sol. 4 (50%)): 0.76
- Dmax ([2]; Sol. 3 (50%): Sol. 4 (50%)): 1.44
- Azomethine dye in Dmax (HPLC), relative amount ([2]; high boiling solvent Sol. 2): 0.78
- Dmax ([2]; high boiling solvent Sol. 2): 1.51
- Azomethine dye in Dmax (HPLC), relative amount ([2]; high boiling solvent Sol. 5): 0.68
- Dmax ([2]; high boiling solvent Sol. 5): 1.42
- % Azomethine Dye lost ([3]; Sol. 2): 0%
- % Azomethine Dye lost ([3]; Sol. 3 (50%): Sol. 4 (50%)): 3%
- % Azomethine Dye lost ([3]; Sol. 5): 1%
- Blue Dmax change ([3]; Sol. 2): -0.02
- Blue Dmax change ([3]; Sol. 3 (50%): Sol. 4 (50%)): -0.02
- Blue Dmax change ([3]; Sol. 5): 0.00

Structure (SMILES): CCC(C)(C)c1cc(C(C)(C)CC)c2oc(C(C#N)=Cc3ccc(N(C(=O)OC(C(=O)Nc4cc(NS(=O)(=O)c5ccc(NS(C)(=O)=O)c6ccccc56)ccc4Cl)C(=O)C(C)(C)C)C4CCCC4)cc3C)nc2c1 (stereo not shown) [Inv-44]
- % Azomethine Dye lost ([3]; Sol. 1): 4%
- Blue Dmax change ([3]; Sol. 1): -0.03
